For 1 molecule, binding results are on record in article PMC12618784.

Results are given in words; binding and its absence hold for the method and conditions named. Binding seen in cells or lysates may run through a third protein. Some binding calls cover weakened binding; strength is not graded here. Tags and fused reporters may be left off the sequences shown.

The target of this assay is T1, Dmel\Tmem43wt::GFP (Drosophila) (UniProt Q9VSB9).
T1 sequence: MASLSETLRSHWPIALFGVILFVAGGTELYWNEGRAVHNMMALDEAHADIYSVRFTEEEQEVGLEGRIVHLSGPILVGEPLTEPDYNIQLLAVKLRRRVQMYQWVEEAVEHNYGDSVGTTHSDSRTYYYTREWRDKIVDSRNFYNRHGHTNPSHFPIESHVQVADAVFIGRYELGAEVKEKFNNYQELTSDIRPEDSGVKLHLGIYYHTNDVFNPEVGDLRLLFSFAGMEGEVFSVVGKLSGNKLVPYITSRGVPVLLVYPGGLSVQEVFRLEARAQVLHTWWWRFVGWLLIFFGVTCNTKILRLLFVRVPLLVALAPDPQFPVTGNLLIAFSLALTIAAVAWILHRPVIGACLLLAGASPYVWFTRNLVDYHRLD
Description: co-IP; Sf21 cells co-expressing Porin::HA and Dmel\Tmem43::GFP constructs; anti-GFP coupled magnetic beads; Western blot, Porin::HA normalised to precipitated Dmel\Tmem43. (In general: In western blotting, separated proteins are transferred to a membrane and probed.)

B1: Porin::HA (protein, UniProt Q94920 1-282)
chain: MAPPSYSDLGKQARDIFSKGYNFGLWKLDLKTKTSSGIEFNTAGHSNQESGKVFGSLETKYKVKDYGLTLTEKWNTDNTLFTEVAVQDQLLEGLKLSLEGNFAPQSGNKNGKFKVAYGHENVKADSDVNIDLKGPLINASAVLGYQGWLAGYQTAFDTQQSKLTTNNFALGYTTKDFVLHTAVNDGQEFSGSIFQRTSDKLDVGVQLSWASGTSNTKFAIGAKYQLDDDASVRAKVNNASQVGLGYQQKLRDGVTLTLSTLVDGKNFNAGGHKIGVGLELEA
For the molecule B1, the binding entry is listed as “binds”.
